Values quoted from earlier work, collected in patent US9572826B2, “Compositions for the treatment of hair loss” (priority 2008, dated 2017).
At least one structure is not confirmed: it was looked up by name or label, or the drawing left a doubt.

Tests used:
alopecia areata [1] = conditions: one open study
alopecia areata [2] = conditions: intralesional injection

Structure (SMILES)	patients with significant regrowth (alopecia areata [1]) [%]	injected sites with hair regrowth (alopecia areata [2])
O=C1c2c(O)cccc2Cc2cccc(O)c21 [anthralin]	18	–
CC1(C)O[C@@H]2C[C@H]3[C@@H]4CCC5=CC(=O)C=C[C@]5(C)[C@@]4(F)[C@@H](O)C[C@]3(C)[C@]2(C(=O)CO)O1 [triamcinolone acetonide]	–	16 out of 25
